No constants are given. Whether binding was seen depends on the method and setting. A result given as binding can be weak or reduced; the word gives no strength. Tags and fused reporters may be left off the sequences shown.
Biological target: T1, GST-tagged ACT domain of PHGDH (human) (UniProt O43175)
T1 sequence: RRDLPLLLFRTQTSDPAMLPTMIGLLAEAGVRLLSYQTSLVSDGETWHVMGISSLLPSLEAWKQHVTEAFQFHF
Test: pull-down

## His-tagged cMyc protein (from UniProt P01106)
  binding: binds
